{"sequences": {"note": "Chains of the proteins cited; added tags and fusions are not shown. Residues count along the entry.", "UniProt O75581, residues 20-1613": "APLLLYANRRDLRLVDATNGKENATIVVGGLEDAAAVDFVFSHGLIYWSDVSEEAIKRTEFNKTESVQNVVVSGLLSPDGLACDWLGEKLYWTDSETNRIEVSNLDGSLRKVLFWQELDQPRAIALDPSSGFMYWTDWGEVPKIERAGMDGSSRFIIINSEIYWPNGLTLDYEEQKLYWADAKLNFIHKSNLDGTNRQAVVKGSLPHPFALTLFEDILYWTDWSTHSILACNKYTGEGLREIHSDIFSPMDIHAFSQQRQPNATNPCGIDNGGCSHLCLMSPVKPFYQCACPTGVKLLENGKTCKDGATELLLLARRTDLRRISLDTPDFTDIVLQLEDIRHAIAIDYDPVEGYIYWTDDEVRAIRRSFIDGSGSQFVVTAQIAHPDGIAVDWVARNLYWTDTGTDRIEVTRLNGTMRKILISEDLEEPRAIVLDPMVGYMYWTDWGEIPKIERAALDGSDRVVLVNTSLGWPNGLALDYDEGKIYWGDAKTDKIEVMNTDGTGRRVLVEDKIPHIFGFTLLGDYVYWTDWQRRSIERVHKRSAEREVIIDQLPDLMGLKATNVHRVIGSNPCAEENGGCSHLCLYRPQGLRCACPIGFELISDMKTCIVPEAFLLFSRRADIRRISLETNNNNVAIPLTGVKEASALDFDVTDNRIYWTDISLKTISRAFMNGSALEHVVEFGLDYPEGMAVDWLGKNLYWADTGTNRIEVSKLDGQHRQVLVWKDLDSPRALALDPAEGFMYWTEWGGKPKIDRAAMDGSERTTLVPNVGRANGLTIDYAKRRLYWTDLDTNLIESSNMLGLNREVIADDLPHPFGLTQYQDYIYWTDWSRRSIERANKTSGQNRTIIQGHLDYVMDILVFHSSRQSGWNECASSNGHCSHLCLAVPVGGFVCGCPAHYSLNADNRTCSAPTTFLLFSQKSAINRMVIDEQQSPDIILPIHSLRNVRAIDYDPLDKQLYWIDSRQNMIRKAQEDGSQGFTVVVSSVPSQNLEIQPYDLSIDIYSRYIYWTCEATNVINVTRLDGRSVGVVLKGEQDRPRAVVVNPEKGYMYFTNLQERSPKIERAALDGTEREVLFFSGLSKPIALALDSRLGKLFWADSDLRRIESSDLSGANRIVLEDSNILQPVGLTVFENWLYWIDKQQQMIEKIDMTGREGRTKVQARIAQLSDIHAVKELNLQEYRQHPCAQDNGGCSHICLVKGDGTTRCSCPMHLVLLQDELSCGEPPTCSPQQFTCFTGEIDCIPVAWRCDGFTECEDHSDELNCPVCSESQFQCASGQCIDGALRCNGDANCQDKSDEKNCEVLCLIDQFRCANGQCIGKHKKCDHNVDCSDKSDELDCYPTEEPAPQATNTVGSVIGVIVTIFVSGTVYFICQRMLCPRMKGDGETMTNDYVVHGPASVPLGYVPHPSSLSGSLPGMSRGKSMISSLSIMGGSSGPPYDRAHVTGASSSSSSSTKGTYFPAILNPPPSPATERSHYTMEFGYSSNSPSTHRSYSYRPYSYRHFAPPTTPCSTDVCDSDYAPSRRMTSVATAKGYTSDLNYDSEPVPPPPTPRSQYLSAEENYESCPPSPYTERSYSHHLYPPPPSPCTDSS"}, "source": "paper PMC7828832", "target": "Lrp6-mCherry (UniProt O75581)", "assay": "fluorescence cross-correlation spectroscopy (FCCS); live U2OS cells co-transfected with the two fluorescently tagged proteins, measured at the plasma membrane 24 h after transfection; without and with Wnt3a conditioned medium added 20 min before measurement; cross-correlation percentages normalised to the positive control EGFP-mCherry", "note": "Results are given in words; binding and its absence hold for the method and conditions named. Binding can be weak; no strength is given."}
{"substance": "Fz8a-EGFP (from UniProt Q9YI00) (receptor)", "values": [{"measurement": "binding", "result": "binds"}]}
